Test results as given in PMC7773179, “Development and application of high-throughput screens for the discovery of compounds that disrupt ErbB4 signaling: Candidate cancer therapeutics” (PLoS ONE, 2020).

tested on: BaF3/EGFR+ErbB4 cells; assay: ErbB4-dependent (NRG1β-induced, IL3-independent) proliferation of BaF3/EGFR+ErbB4 cells, semi-automated MTT assay; format: cell-based, Mouse; details: category from IC50 against NRG1β and selectivity IC50,IL3:IC50,NRG1β
Description: This proliferation is dependent upon exogenous ErbB4 expression.
As noted earlier, the BaF3/EGFR+ErbB4 cells are IL3 dependent and this dependency can be rescued by stimulation of ErbB4 coupling to cell proliferation. Therefore, the specificity of each of the 19 candidate ErbB4 inhibitors was tested by assaying inhibition of ErbB4-dependent and IL3-dependent cellular proliferation in parallel.

| Structure (SMILES) | Priority |
| --- | --- |
| CCOC(=O)C1=C(N)OC2=C(C(=O)CC(C)(C)C2)C1C1CCCCC1 (stereo not drawn) [SR-33491] | Medium (IC50 of less than 30 μM against NRG1β-induced ErbB4-dependent cell proliferation AND a selectivity for ErbB4 over IL3 of at least 3) |
| CCC(=O)NC(N(Cc1ccccc1)Cc1ccccc1)C(Cl)(Cl)Cl (stereo not drawn) [SR-33483] | Medium (IC50 of less than 30 μM against NRG1β-induced ErbB4-dependent cell proliferation AND a selectivity for ErbB4 over IL3 of at least 3) |
| O=C1NC2=Nc3ccccc3SC(c3ccccc3)=C2C(c2ccc(O)cc2)N1 (stereo not drawn) [SR-33494] | Medium (IC50 of less than 30 μM against NRG1β-induced ErbB4-dependent cell proliferation AND a selectivity for ErbB4 over IL3 of at least 3) |
| CCCOc1ccc(C(=O)C(CCCCC(CN(C)C)C(=O)c2ccc(OCCC)cc2)CN(C)C)cc1 (stereo not drawn) [SR-33486] | Medium (IC50 of less than 30 μM against NRG1β-induced ErbB4-dependent cell proliferation AND a selectivity for ErbB4 over IL3 of at least 3) |
| O=C(Nc1cccc(O)c1)c1cc2nc(-c3ccccc3)cc(-c3ccccc3)n2n1 [SR-33487] | High (IC50 against NRG1β-induced ErbB4-dependent cell proliferation of less than 10 μM and a selectivity for ErbB4 over IL3 (the IC50 value against IL3 divided by the IC50 value against NRG1β—IC50,IL3:IC50,NRG1β) of greater than 10) |
| O=C(CC1c2ccccc2Oc2ccccc21)NCCOc1ccccc1 [SR-33492] | Medium (IC50 of less than 30 μM against NRG1β-induced ErbB4-dependent cell proliferation AND a selectivity for ErbB4 over IL3 of at least 3) |
